Measured values published in paper PMC10941729.
These are yes or no findings as the source states them, for the method shown. Binding seen in cells or lysates may run through a third protein. Some entries that bind do so weakly or less than the wild type.

Chains of the proteins cited; added tags and fusions are not shown.
UniProt P10415: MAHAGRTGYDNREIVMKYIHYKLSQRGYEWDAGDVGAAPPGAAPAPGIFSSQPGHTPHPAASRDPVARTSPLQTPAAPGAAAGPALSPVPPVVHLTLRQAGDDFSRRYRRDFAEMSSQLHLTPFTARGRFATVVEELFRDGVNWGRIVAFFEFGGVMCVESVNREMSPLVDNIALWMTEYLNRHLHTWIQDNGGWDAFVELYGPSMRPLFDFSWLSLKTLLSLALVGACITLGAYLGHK
UniProt Q14457: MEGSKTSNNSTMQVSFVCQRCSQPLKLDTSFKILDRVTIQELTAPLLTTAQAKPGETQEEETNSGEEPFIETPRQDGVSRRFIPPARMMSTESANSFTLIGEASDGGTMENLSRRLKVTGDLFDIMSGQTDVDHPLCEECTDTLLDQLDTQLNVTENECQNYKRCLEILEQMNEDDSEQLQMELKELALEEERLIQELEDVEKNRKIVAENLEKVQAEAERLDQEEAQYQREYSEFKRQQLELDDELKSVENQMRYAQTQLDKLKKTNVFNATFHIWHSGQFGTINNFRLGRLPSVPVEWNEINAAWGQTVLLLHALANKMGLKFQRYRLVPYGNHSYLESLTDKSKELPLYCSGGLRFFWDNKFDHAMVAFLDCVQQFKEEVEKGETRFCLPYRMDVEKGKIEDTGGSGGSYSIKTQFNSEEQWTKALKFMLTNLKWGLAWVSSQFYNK

Molecular target: BCL2 (human (endogenous in TPC-1)) (UniProt P10415)
Assay: co-IP; anti-BCL2 antibody on magnetic beads, RIPA lysates of TPC-1 cells, incubated 1 hour at room temperature; blots with anti-Beclin1, Bax and BCL2 antibodies; cells untreated or treated with ABT737 for 8 hours

binding: binds
Substance: Beclin1 (from UniProt Q14457 1-450)
